Measurements taken from patent US5679674A (priority 1992, dated 1997).

Test system: p-Phenylquinone-induced agony (writhing response) in mice
Test: animal or person
Format: in vivo, Male ddy mice
Conditions: Mus musculus, sc, 0.25 h, read-out: Analgesic effect (ED50, μg/kg sc) Phenylquinone-induced agony test

CN1CC[C@]23c4c5ccc(O)c4O[C@H]2[C@@H](O)C=C[C@H]3[C@H]1C5.Cl [Morphine HCl, reference compound] showed an ED50 of 480 µg/kg.
